Measurements: PubChem BioAssay AID2100 (National Center for Advancing Translational Sciences (NCATS), 2009)
The campaign covered roughly 300,000 compounds. About 1,200 (0.4%) were called active. Listed are the inconclusive results; actives and inactives stand elsewhere. Calls come from the whole dose curve; as a rule, active = well fitted inhibition curve with a large enough effect; inconclusive = small, poorly fitted or top-dose-only effect, or another doubt; inactive = no such curve, though single readings can be large or run the other way.

Target: Lysosomal alpha-glucosidase (Homo sapiens) (UniProt P10253)
Assay: qHTS Assay for Inhibitors and Activators of Human alpha-Glucosidase Cleavage of Glycogen;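 note: the screen sought inhibitors and activators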
Conditions: recombinant GAA, glycogen substrate, Amplex Red glucose oxidase fluorescence
Text: NIH Chemical Genomics Center [NCGC] NIH Molecular Libraries Probe Production Centers Network [MLPCN] MLPCN Grant: R03 MH084841-01 Assay Submitter (PI): Wei Zheng NCGC Assay Overview: Alpha-glucosidase is responsible for the hydrolysis of terminal, non-reducing 1,4-linked alpha-D-glucose residues, which releases alpha-D-glucose. It is a lysosomal hydrolase that is required for the degradation of a small percentage (1-3%) of cellular glycogen in humans. Deficiency of this enzyme results in glycogen-storage disease type II (GSDII), also referred to as Pompe disease, an autosomal recessive disorder. Structurally normal glycogen is accumulated in the lysosomes and cytoplasm in affected patients, primarily in muscle tissues. […]
NCGC Assay Protocol Summary: This is an enzyme assay using glycogen from bovine liver (Sigma catalog #: G0885) as the substrate and recombinant human alpha-glucosidase as the enzyme preparation. Upon hydrolysis of the substrate, the glucose product can be detected using the Amplex Red Glucose Oxidase Assay Kit (Invitrogen catalog #: A22189). The product of this reaction can be read with a fluorescence plate reader with an excitation at 573 nm and an emission at 610 nm. […] The AC50 values were determined from concentration-response data modeled with the standard Hill equation. […] (7) Detect the assay plate in a ViewLux plate reader (PerkinElmer) with Ex=573 nm and Em=610nm. […]
Potency is the fitted concentration of half-maximal effect.

**Q.** For `CSc1ccccc1C(=O)NCC1(N2CCCCC2)CCCCC1`, which Potency is on record?
**A.** inconclusive: 25.1 µM
